A: 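Assay on Mycobacterium tuberculosis, filed only as a heat shock assay from Cornell; the read-out is not stated. The concentration is filed as 10 mM, unlikely as a test dose, so the dose is not known. Direction is inferred from retests: higher values go with stronger inhibition. About 69,000 compounds were tested under these conditions; 1.4% (about 930) showed 50% or more at least once.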
B: 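Whole-cell assay for inhibitors of Mycobacterium tuberculosis growth, labelled Cornell in the record; the read-out is not stated. The concentration is filed as 10 mM, unlikely as a test dose, so the dose is not known. Higher means stronger inhibition (inferred from two other growth screens of the library). Size under these conditions: about 53,000 compounds, about 900 of them at 50% or above in at least one test.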
C: 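Methionyl-tRNA synthetase (putative), Leishmania donovani (UniProt E9BF75). Primary screen of methionyl-tRNA synthetase; the read-out is not stated. The test concentration is not given. The values are filed as inhibition. Size under these conditions: about 68,000 compounds, about 24 of them at 50% or above in at least one test.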

Chains of the proteins cited; added tags and fusions are not shown.
UniProt E9BF75, entry or part of it: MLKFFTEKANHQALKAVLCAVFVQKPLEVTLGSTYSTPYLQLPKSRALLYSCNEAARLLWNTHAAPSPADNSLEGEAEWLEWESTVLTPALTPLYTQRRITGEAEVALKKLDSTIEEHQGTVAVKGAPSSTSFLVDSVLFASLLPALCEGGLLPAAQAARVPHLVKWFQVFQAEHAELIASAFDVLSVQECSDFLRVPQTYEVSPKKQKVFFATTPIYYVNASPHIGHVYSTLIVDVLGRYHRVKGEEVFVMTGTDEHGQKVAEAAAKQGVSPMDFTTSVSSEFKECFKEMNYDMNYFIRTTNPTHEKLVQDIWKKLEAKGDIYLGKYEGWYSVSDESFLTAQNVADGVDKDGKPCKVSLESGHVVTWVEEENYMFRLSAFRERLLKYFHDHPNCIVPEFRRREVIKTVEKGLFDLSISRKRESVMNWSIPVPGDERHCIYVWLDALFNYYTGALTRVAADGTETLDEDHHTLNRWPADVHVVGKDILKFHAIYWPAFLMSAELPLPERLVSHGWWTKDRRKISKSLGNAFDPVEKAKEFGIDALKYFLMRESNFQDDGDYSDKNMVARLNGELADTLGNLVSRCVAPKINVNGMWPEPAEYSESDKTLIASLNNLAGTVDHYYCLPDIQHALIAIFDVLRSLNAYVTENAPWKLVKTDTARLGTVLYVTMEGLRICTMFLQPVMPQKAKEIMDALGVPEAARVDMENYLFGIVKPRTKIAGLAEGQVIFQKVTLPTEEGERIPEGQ

All values are in %. The controls that fix the scale are not given in the record; negative values are as filed. The compounds are a random part of those screened.

{"structure": "COc1ccc(F)cc1NC(=O)NCC1(C)COC1", "A": -4.028, "B": -11.98, "C": 2.439}
{"structure": "Cc1cnc(C)c(-c2cc(O)c3c(c2)CN(Cc2nccs2)CCO3)n1", "A": -14.08, "B": 20.85, "C": 8.04}
{"structure": "Cn1nnn(-c2ccc(NS(=O)(=O)c3ccc(F)c(Cl)c3)cc2)c1=O", "A": -0.7508, "B": 40, "C": 10.07}
{"structure": "O=C(O)C(F)(F)F.O=C(c1ccsc1)N1CCc2c(COCC3CC3)cncc2C1", "A": -19.79, "B": -32.5}
{"structure": "CC(=O)N1CCCC(Cc2cncc(Br)c2)CC1", "stereo": "centres unmarked", "A": -17.32, "B": -10.01, "C": 7.877}
{"structure": "CCc1ccc(CN2Cc3nccn3CC(Cn3cncn3)C2)o1.O=C(O)C(F)(F)F", "stereo": "centres unmarked", "A": 0.4246, "B": 8.234}
{"structure": "CCOc1ccc(C(=O)N2Cc3cnc(CC(C)C)nc3C2)o1", "A": 16.17, "B": 25.88, "C": 6.704}
{"structure": "CC(=O)N1CCC(NS(=O)(=O)c2cccnc2)CC1", "A": 3.055, "C": 2.941}
{"structure": "COc1ccc(CN2C[C@@H](F)[C@@H](OCc3nc4cnccc4[nH]3)C2)cn1", "A": -11.97, "B": -46.54, "C": 15.04}
{"structure": "CNc1cc(C2CCCN2Cc2ccccc2OCC(=O)O)ccn1", "stereo": "centres unmarked", "A": 9.507, "B": 11.22, "C": 18.84}
{"structure": "O=C(c1ccc(Sc2ccccn2)cc1)N1CCCSCC1", "A": -19.43, "B": 28.03, "C": 14.48}
{"structure": "O=C(O)C(F)(F)F.[H][C@@]12CCCO[C@]1([H])[C@H](OCC1CCCC1)CN2c1nnc(C)s1", "A": -23.4, "B": 12.58}
{"structure": "CC(C)c1ccc(OCC(=O)N2CCOCC2c2ncon2)cc1", "stereo": "centres unmarked", "A": -10.52, "C": 10.74}
{"structure": "COCCOc1ccc(NC(=O)N(C)Cc2ccsc2)cn1", "A": 23.49, "B": -22.56, "C": 8.92}
{"structure": "CCOCCN(C)C(c1cccnc1)c1ccc(F)cc1F", "stereo": "centres unmarked", "A": -9.528, "B": 14, "C": 12.77}
{"structure": "COC(=O)c1sccc1S(=O)(=O)NCC1(O)CCOc2ccccc21", "stereo": "centres unmarked", "A": 2.25, "B": 8.201, "C": 11.33}
{"structure": "Cn1ncc2c1CCCC2NCc1ccc(OCc2cccnc2)cc1", "stereo": "centres unmarked", "A": -26.43, "B": -5.803, "C": 21.05}
{"structure": "Cc1ccc(NC(=O)CC2Cn3ncnc3NC2=O)cc1C", "stereo": "centres unmarked", "A": -11.76, "C": 10.86}

Repeated from the top, 2 entries:

{"structure": "COc1ccc(F)cc1NC(=O)NCC1(C)COC1", "A": -4.028, "B": -11.98, "C": 2.439}
{"structure": "Cc1cnc(C)c(-c2cc(O)c3c(c2)CN(Cc2nccs2)CCO3)n1", "A": -14.08, "B": 20.85, "C": 8.04}

Data taken from ChEMBL document CHEMBL3988442, “University of Dundee, Small-Polar-MMV Screening Library” (2021).